According to PubChem BioAssay AID493014 (National Center for Advancing Translational Sciences (NCATS), 2011):
The list shows a part of the results. Further columns of the screen follow, without active or inactive calls. The list favours compounds with an active or inconclusive main result. Potencies come from curve fits of mixed quality, noted in brackets.

Assay: qHTS Assay to Find Inhibitors of Chronic Active B-Cell Receptor Signaling
Details: ABC-DLBCL IkBa-CBG/CBR reporter, luminescence ratio (green luciferase fused to IkBa over red control in TMD8 lymphoma cells), 4 h
Outline: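 Doxycycline induced both beetle luciferases in TMD8 lymphoma cells; IKK-driven degradation limits the IkappaBalpha-fused green signal, while red luminescence normalises for cell number and nonspecific effects. Compounds tested up to 46 uM, 4 hrs.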

[1] = measured here: CBR red luminescence, cell number
[2] = measured here: IkBa-CBG green luminescence

Compound | AC50 [1] | AC50 [2]
O=C(CC1Oc2ccccc2NC1=O)NCCc1ccccc1 (centres undefined) | 9.2 µM [falling, single point] | 
COc1ccc(Cc2nnc(NC(=O)c3cc(OC)cc(OC)c3)s2)cc1 | 8.91 µM [rising, partial curve] | 
COc1ccccc1N1CCN(C(=O)CCSCc2ccccc2F)CC1 | 3.16 µM [rising, partial curve, poor fit] | 
O=C(Nc1nccs1)c1cn(-c2ccccc2)nc1-c1ccccc1 | 0.231 µM [falling, full curve] | 
Cc1cc(C(=O)Nc2ccc3[nH]ccc3c2)no1 | 11.2 µM [falling, partial curve] | 
Cc1ccc(S(=O)(=O)n2ccc3c(OCCOCCNCc4ccc(F)cc4)cccc32)cc1 | 12.6 µM [falling, single point] | 
CC1=CC(=O)N(c2ccn(C)n2)C1=O | 11.2 µM [falling, single point] | 
COc1ccc(-n2nnnc2SCC(=O)c2ccc3c(c2)OCCO3)cc1 | 2.91 µM [rising, full curve, poor fit] | 
O=C1N=C(N2CCN(c3ccccc3)CC2)S/C1=C/c1ccco1 | 1.12 µM [rising, full curve, poor fit] | 
COc1ccc(/C=C/c2nnc(NC(C)=O)s2)cc1 | 11.2 µM [falling, partial curve, poor fit] | 
COc1ccc2c(c1)[nH]c1c(=O)n(CCc3cnc[nH]3)cnc12 | 9.2 µM [falling, partial curve, poor fit] | 
CCOc1ccc(NC(=O)CN(C)S(=O)(=O)c2ccc3c(c2)CCC(=O)N3)cc1 | 3.98 µM [rising, full curve, poor fit] | 
CCc1ccc(-c2cc(C(=O)NN3CCN(C)CC3)c3ccccc3n2)cc1 | 13 µM [falling, partial curve] | 
COc1ccc2nc(NC(=O)NC3CCCCC3)sc2c1 | 11.2 µM [falling, partial curve, poor fit] | 
O=C(Oc1ccc(NC(=O)c2cc3c(cc2Br)OCO3)cc1)c1ccccc1 | 2.24 µM [falling, full curve, poor fit] | 
Cn1ncc2c(O/N=C(\N)c3ccc(C(C)(C)C)cc3)ncnc21 | 20 µM [falling, single point] | 
Cc1cccc(CN2CCN(CCCc3ccccc3)CC2)c1 | 11.2 µM [rising, single point] | 

Compound | AC50 [1] | AC50 [2]
CC(=O)c1sc(NC(=O)CCOc2ccccc2)nc1C | 15.8 µM [falling, single point] | 
Cc1ccc(NC2=Nc3ccccc3CC2)cc1 | 29.1 µM [falling, single point] | 
Cc1nn(-c2nc3ccccc3[nH]2)c(N)c1-c1ccccc1 | 29.1 µM [falling, single point] | 
Cc1cc2n(n1)SC(Nc1ccc(F)c(Cl)c1)N2 (centres undefined) | 0.731 µM [rising, full curve, poor fit] | 
S=C(NCCC(c1ccccc1)c1ccccc1)Nc1ccc(Cl)cc1 | 11.2 µM [falling, partial curve] | 25.1 µM [rising, partial curve, poor fit]
CCN(CC(=O)Nc1c(F)cccc1F)C(=O)/C=C/c1ccc(OCC#N)c(OC)c1 | 32.6 µM [rising, partial curve, poor fit] | 
Cc1cccc(NC(=O)CN2C(=O)NC(Cc3ccccc3)C2=O)c1 (centres undefined) | 29.1 µM [rising, single point] | 
Cc1ccc(Cl)cc1N1CCN(C(=O)C2CCC(=O)N(C3CCCCCC3)C2)CC1 (centres undefined) | 3.98 µM [falling, single point] | 
CCOC(=O)c1cnc(-n2nc(C)cc2C)nc1NCCc1ccccc1 |  | 35.5 µM [rising, partial curve, poor fit]
COCCCNC(=O)/C(C#N)=c1\s/c(=C\c2ccccc2OC(F)F)c(=O)n1CCCOC | 16.4 µM [falling, single point] | 
Cc1cn(C2CC(OC(=O)C(C)C)C(CO)O2)c(=O)[nH]c1=O (centres undefined) | 29.1 µM [rising, single point] | 
Cc1ccc(S(=O)(=O)N(C)C2(C)CCS(=O)(=O)C2)cc1 (centres undefined) | 4.11 µM [falling, single point] | 
CCn1nc(NC(=O)c2cccs2)c2cc3ccccc3nc21 | 10 µM [falling, partial curve, poor fit] | 
COc1ccc(C(NC(=O)C2CCCCC2)c2c(O)ccc3ccccc23)cc1 (centres undefined) |  | 20.6 µM [rising, partial curve, poor fit]
O=C(NCCC1CCCCN1S(=O)(=O)c1cccs1)C(=O)Nc1ccc(F)cc1 (centres undefined) | 4.61 µM [falling, partial curve] | 
O=C1c2ccccc2C(=O)c2[nH]c(=O)[nH]c21 | 12.6 µM [falling, partial curve] | 

Pulled by compound from the entries so far (two):
Compound | AC50 [1] | AC50 [2]
CCN(CC(=O)Nc1c(F)cccc1F)C(=O)/C=C/c1ccc(OCC#N)c(OC)c1 | 32.6 µM [rising, partial curve, poor fit] | 
CCn1nc(NC(=O)c2cccs2)c2cc3ccccc3nc21 | 10 µM [falling, partial curve, poor fit] | 
